The test has as its system Nude mice, LX-1 lung xenograft intrarenal, tumor weight T/C. The test is described as follows: NCI In Vivo Anticancer Drug Screen. Data for tumor model Human Lung LX-1 Xenograft (intrarenal inoculation) in NU/NU BALB/C (nude) mice. The following applies: T/C endpoint: mean tumor weight change, schedule: Q04DX003 (sc), vehicle: suspension in saline, evaluated on day 11, higher T/C = larger tumour. The method, then:
The antitumor activity of compounds was measured in mice bearing transplantable tumors. Survival or tumor size were measured and the results are expressed as the measurement made in the treated group (T) divided by the measurement made in the vehicle treated control group (C). The tumor model used in this assay is Human Lung LX-1 Xenograft (intrarenal inoculation) in NU/NU BALB/C (nude) mice
(In general: A xenograft is tissue or cells of one species grown in another, often human tumour cells in immunodeficient mice.)

The list shows only some results of the screen, not a fair sample: it covers a few groups of compounds. Not every dose and run of a compound is shown. T/C is the treated group as % of the vehicle group. Schedules are NCI's codes, read here as Q, the interval in days (D) or hours (H), X, the number of doses.

As for `Cc1ccc(Sc2ccc([N+](=O)[O-])cc2[N+](=O)[O-])c([N+](=O)[O-])c1`, the T/C by setting is: (dose: 300.0 mg/kg/injection) 124 % of control; (dose: 600.0 mg/kg/injection) 128 % of control; (dose: 1200.0 mg/kg/injection) 121 % of control; (dose: 2400.0 mg/kg/injection) 123 % of control.

The record behind these values is PubChem BioAssay AID266 (DTP/NCI, 2004).
